Article PMC10397212
Results are given in words; binding and its absence hold for the method and conditions named. In cells and extracts the contact can be indirect. Some results given as binding are weak or reduced against the parent protein; the word gives no strength.

The chains behind the UniProt entries cited, without tags or fusion partners. Where a name states a change or a piece, a line headed by the entry shows the natural chain unless it says otherwise. A line that says so, or that is headed by a name, gives the form on record, which may keep a tag or linker.
UniProt Q15075: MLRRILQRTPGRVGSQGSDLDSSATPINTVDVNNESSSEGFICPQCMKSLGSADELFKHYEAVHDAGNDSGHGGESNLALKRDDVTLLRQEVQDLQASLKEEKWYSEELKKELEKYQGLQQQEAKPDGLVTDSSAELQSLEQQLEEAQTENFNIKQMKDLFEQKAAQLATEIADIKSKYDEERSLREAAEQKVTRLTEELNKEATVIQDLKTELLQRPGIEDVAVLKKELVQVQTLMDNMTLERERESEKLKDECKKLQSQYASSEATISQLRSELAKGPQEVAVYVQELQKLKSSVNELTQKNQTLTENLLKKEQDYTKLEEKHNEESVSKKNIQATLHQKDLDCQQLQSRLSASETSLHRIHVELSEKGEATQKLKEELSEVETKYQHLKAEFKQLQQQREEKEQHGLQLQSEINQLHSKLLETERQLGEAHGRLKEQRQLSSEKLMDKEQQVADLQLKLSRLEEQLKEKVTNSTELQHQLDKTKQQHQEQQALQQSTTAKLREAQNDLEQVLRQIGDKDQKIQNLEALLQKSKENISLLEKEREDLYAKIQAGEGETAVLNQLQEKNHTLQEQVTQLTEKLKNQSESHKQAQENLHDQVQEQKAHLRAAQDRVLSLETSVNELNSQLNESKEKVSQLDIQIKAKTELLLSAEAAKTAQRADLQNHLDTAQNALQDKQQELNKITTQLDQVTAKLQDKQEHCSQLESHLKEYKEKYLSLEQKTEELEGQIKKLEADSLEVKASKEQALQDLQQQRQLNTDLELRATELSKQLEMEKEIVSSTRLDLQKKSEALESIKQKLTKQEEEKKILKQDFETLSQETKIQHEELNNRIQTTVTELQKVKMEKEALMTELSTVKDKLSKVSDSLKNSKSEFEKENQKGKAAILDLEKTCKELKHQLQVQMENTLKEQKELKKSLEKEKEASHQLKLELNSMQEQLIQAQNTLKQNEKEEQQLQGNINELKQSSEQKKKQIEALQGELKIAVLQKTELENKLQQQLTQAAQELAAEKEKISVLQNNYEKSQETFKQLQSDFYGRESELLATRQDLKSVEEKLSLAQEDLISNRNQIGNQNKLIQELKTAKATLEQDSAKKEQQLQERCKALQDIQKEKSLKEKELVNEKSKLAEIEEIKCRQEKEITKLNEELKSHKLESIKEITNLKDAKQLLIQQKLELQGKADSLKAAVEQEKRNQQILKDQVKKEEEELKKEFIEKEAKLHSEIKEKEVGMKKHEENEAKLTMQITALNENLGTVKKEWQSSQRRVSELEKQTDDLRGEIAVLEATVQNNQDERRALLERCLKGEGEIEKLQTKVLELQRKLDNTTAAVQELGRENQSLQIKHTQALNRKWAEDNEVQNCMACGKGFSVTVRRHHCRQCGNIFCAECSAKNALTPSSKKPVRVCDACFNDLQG
EEA1-CTmut TagRFP-T (Q15075, form named): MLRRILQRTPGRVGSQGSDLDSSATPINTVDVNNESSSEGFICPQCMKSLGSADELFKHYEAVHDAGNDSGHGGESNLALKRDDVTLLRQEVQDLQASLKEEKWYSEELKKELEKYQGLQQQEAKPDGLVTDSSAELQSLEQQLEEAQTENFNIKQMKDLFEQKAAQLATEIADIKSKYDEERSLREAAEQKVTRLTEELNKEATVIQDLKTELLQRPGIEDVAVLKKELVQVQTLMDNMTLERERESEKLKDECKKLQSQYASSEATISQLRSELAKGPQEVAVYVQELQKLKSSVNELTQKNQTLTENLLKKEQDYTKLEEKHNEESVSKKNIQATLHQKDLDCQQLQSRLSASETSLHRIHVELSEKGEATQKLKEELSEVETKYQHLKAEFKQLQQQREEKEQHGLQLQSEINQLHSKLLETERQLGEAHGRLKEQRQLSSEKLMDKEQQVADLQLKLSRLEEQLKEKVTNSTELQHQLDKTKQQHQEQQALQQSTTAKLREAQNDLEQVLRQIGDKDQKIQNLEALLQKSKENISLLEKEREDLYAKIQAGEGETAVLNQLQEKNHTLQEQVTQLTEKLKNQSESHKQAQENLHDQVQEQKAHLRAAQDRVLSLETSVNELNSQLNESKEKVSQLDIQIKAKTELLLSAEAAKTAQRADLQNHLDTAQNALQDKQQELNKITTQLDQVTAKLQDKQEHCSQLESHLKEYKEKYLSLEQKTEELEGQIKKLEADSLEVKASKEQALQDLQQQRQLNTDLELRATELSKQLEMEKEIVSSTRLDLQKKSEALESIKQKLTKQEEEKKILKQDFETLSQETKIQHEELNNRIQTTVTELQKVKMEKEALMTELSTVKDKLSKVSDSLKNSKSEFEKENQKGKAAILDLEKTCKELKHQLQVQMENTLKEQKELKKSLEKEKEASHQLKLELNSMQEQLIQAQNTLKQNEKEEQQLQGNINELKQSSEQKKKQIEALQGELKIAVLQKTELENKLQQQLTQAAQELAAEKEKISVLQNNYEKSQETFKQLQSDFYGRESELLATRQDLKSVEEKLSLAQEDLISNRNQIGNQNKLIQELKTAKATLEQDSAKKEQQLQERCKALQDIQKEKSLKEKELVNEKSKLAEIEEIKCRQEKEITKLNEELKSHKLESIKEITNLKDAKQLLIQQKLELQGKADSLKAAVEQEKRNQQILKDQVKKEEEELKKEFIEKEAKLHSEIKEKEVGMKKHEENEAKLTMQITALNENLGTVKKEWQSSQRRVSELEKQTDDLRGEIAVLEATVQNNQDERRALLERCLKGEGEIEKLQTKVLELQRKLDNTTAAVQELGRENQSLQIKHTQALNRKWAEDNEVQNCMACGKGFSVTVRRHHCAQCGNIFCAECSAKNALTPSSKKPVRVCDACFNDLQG

Experiments:
EGFP-Rab5 = EGFP-Rab5 (UniProt P20339); assay: FRET or BRET; FLIM-FRET in fixed (4% paraformaldehyde) transfected RPE1 cells; EGFP donor lifetime read with an RFP acceptor; pixel-wise lifetime fitting; Leica SP8 Falcon; also done on SAR405-treated cells
mRFP-Rab5 [1] = molecular target: T1, mRFP-Rab5 (UniProt P18066); assay: as above
T1 sequence: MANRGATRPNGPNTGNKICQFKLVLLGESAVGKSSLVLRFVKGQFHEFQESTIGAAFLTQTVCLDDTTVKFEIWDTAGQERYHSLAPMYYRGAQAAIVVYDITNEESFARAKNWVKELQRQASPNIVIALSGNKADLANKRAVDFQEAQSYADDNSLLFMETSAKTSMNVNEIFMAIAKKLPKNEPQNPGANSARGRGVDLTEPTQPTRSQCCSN

mRFP-Rab5 [2] = molecular target: T1, mRFP-Rab5; assay: FRET or BRET; live-cell FLIM-FRET in transfected RPE1 cells; EGFP lifetime fitted with two components (τ1 = 1.006 ns, τ2 = 2.600 ns) and photons split into an 'NT EEA1' and a 'CT EEA1' channel

Substance | binding (EGFP-Rab5) | binding (mRFP-Rab5 [1]) | binding (mRFP-Rab5 [2])
EEA1 TagRFP-T (from UniProt Q15075 1-1411) | binds | – | –
EGFP-EEA1 (from UniProt Q15075 1-1411) | – | binds | binds
EEA1-CTmut TagRFP-T (from UniProt Q15075 1-1411) | binds | – | –
